Data set [1] is described as follows: peptide made by a vendor (peptide synthesis; rink amide resin). The settings on record: whole synthesis, mass spectrometry.
The subject of a further data set is HCAVSMCs. More on the design: method as in 2 sources, ref 22 = [22]; PMID 17379147; doi:10.1016/j.chembiol.2007.02.007; 22. Yuan H Barnes KR Weissleder R Cantley L Josephson L Covalent reactions of wortmannin under physiological conditions Chem. Biol. 2007 14 321 328 10.1016/j.chembiol.2007.02.007 17379147 ||| ref 23 = [23]; PMID 25889964; doi:10.1186/s12964-015-0102-1; 23. Preta G Cronin JG Sheldon IM Dynasore—not just a dynamin inhibitor Cell Commun. Signal 2015 13 24 10.1186/s12964-015-0102-1 25889964 PMC4396812. The settings on record: cited from earlier work.

For some assays here: End groups of sequences in plain letters are not given here.

In the case of YARAAARQARA-HiBiT, in data set [1] (scale 20 mg), the “final purity (method not given)” value is above 95%. In the case of `O=C(N/N=C/c1ccc(O)c(O)c1)c1cc2ccccc2cc1O` [dynasore, Dynasore], the “time to reversal of inhibitory effect following removal from the media” value in the data set on HCAVSMCs is recorded as at most 20 min. For the compound `COC[C@H]1OC(=O)c2coc3c2[C@@]1(C)C1=C(C3=O)[C@@H]2CCC(=O)[C@@]2(C)C[C@H]1OC(C)=O` [wortmannin, Wortmannin], the “duration of bioactivity following removal from the media” value in the data set on HCAVSMCs is recorded as 48 h. In data set [1] (scale 20 mg), “Ac-GLWRALWRLLRSLWRLLWRA-cya (N-acetyl, C-terminal cysteamide)” gave a final ms purity of at least 80%.

Consider VSGWALFKKIS, for which, in data set [1] (scale 19 mg), the “final purity (method not given)” value is listed as above 95%.

The values above are taken from article PMC6825215 (Nature Communications, 2019).
